Data reported in publication PMC3355077.
Results are given in words; binding and its absence hold for the method and conditions named. Binding seen in cells or lysates may run through a third protein. Here binding means that the protein was enriched with, or labelled near, the bait; the list need not be complete.

By UniProt entry, the sequences of proteins in these tests, tags left out. Where a name states a change or a piece, a line headed by the entry shows the natural chain unless it says otherwise. Chains listed by the source or under a name are the forms on record and can include a tag or linker.
Psip1/p52 (endogenous) (mouse (endogenous in NIH 3T3 and MEFs)) (Q99JF8, form named): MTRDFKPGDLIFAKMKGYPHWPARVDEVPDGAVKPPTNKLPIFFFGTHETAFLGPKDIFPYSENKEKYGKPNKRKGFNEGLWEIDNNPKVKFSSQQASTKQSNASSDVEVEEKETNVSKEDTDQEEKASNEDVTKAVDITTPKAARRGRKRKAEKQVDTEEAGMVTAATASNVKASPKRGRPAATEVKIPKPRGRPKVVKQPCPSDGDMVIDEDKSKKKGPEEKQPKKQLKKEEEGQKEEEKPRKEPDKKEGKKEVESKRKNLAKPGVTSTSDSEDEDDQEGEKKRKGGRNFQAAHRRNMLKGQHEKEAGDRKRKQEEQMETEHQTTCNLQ

B1: NOL6 (protein, UniProt Q8R5K4 1-1152)
chain: MPSAGERPAVKMGPAPAGEQHRRATEDPEVMELAFEGMDKEKAPSRKRARTEPPAEGLLQPVNLSREELYKEPTNEELNRLRETEILFHSTLLRLQVEELLKEVRLSEKKKERIDNFLKEVTKRIQKVPPVPEAELTDQSWLPAGVRVPLHQVPYAVKGSFRFRPPSQITVVGSYLLDTCMRPDINVDVAVTMPREILQDKDGLNQRYFRKRALYLAHLAYHLAQDPLFSSVRFSYMSGCHLKPSLLLRPHGKDERLVTVRLLPCPPLDFFRPCRLLPTKNNVRSAWYRGQSCPDYEPPTPHYNTWILQDVALETHMHLLASVLGSAQGLKDGVALLKVWLRQRELDKGLGGFNGFIISMLVAFLVSKRKIHTTMSGYQVLRSVLQFLATTDLTINGISFSLSSDPSLPTLAEFHQLFAVVFVDPSGRLNLCADVTASTYNQVQYEAELSMALLDSKADDGFQLLLMTPKPMIQAFDHVVHLHPLSRLQASCHQLKLWPELQDNGGDYVSAALGPLTNILVQGLGCRLHLLAHSRPPVPEWSINQDPPKHKDAGTLTLGFLFRPEGLTSVIDLGPEADKPEAADFRQFWGTRSELRRFQDGAIREAVVWEAESLFEKRLIPHQVVTHLLALHADIPDTCIQYVGGFLDALIQNPKEISSTGEEALALAVRCYDDLSRLLWGLEGLPLTVSAVQGAHPVLRYTEVFPPAPVRPAYSFYNRLQELASLLPRPDKPCPAYVEPMTVVCHLEGSGQWPQDAEAVQRVRAAFQLRLAEVLTQEHRLQCCATATHTDVLKDGFVFRIRVAYQREPQILKEVRSPEGMVSLRDTPASLRLERDTKLLPLLTSALHGLQQQYPAYSGVARLAKRWVRAQLLGEGFTDESLDLLAASLFLHPEPFTPPSVPQVGFLRFLYLVSTFDWKNNPLIVNLNGELTAEEQVGIRSSFLAARTQLPVMVIITPQDRRSSVWTQDGPSAQILQQLVSLAAEALPILEKQLMDPRGPGDIRTVFRPPFDMYDVLIHLTPRHIPRHRQAVDPPVASFCRGLLAEPGPSSLMPVLGYDPPQLYLAQLREAFEDLALFFYDQHGGEVIGVLWKPSSFQPQPFKASSIKGRMVVSQGGELVMLPNIEAILEDFAVLGEGLVQAVEARSERWTV
B2: AATF (protein, UniProt Q9JKX4 1-526)
chain: MAAPQPLALQLEQLLNPRPREADPEADPEEATRARVIDRFDEGEEEKDDLAVSSIRKLAPVSLLDTDKRYSGKTTSRKAWKEDHWEQALPSSSDNEASDEGGSEDGDSEGLGLEEISEDVDEDLEDNKISDEGGSEDGDSEGLGLEEFSEDVEEDLEGEDEEDREEDRNSEDDGVVAAFSSVKVSEEVEKGRAVKNQIALWDQLLEGRIKLQKALLTTNQLPQPDVFPVFKDKGGPEFASALKNSHKALKALLRSLVDLQEELLFQYPDTRHIVNGAKPNTESEEISSEDDELVGEKKKQRKAPPKRKLEMEDYPSFMAKRFADFTIYRNHTLQKWHDKTKLASGKLGKGFGAFERSILTQIDHIMMDKERLLRRTQTKRSAYRVLGKPEPVPEPVAETLPGEPETLPQGPANAHLRDLDEEIFDDDDFYHQLLRELIERKTSSLDPNDQVAMGRQWLAIQKLRSKIRKKVDRKASKGRKLRFHVLSKLLSFMAPIDHTAMSDDARTELFRSLFGQLNPPDADRGK
B3: NRF (protein, UniProt Q8BY02 1-690)
chain: MEKILHMAEGIDIGEMPSYDLMLPKPSKGQKRYLSTYDGQNPPKKQAGSKFHVRARFEPVHFVASSSKAERQEDPYGPQTKDVNGRTHFASMPRNFYQDYTQDSFSIQDGNSQYCNSSGFIFTKDQPVATNMYFDSGNPAPSSTSQQANCQPAPEPPPSQMYPESLVAEKQYFIEKLTATIWKNLSNPEMTSGSDKINYTYMLTRCIQACKTNPEYIYAPLKEIPPADIPKNKKLLTDGYACEVRCQNIYLTTGYAGSKNGSRDRATELAVKLLQKRIEVRVVRRKFKHIIGEDLVVCQIGMLSYEFPPALKPPEDLVVLGKDASGQPIFNSSAKHWTNFVITENANDAIGILNNSASFNKMSIEYKYEMMPNRTWRCRVFLQDHCLAEGYGTKKTSKHAAADEALKVLQKTQPTYPSVKSSQCHSGSSPKGSGKKKDIKDLVVYENSSNPVCTLNDTAQFNRMTVEYVYERMTGLRWKCKVILESEVIAEAVGVKKSVKYEAAGEAVKTLKKTQPTVINNLKKGTVEDVISRNEIQGRSAEEAYKQQIKEDNIGNQLLRKMGWTGGGLGKSGEGIREPISVKEQHKREGLGLDVERVNKIAKRDIEQIIRNYARSESHSDLTFSTELTNDERKQIHQIAQKYGLKSKSHGVGHDRYLVVGRKRRKEDLLDQLKQEGQVGHYELVMPQAN
B4: Mybbp1A (protein, UniProt Q7TPV4 1-1344)
chain: MAEMKSPTKAEPATPAEAAQSDRHSLLEHSREFLDFFWDIAKPDQETRLRATEKLLEYLRTRPNDSEMKYALKRLITGLGVGREAARPCYSLALAQLLQSFEDIPLCDILDQIQEKYSLQAMNKAMMRPSLFANLFGVLALFQSGRLVKDKEALMKSVQLLKILSQHPNHLQGQPIKALVDILSEVPESMFQEILPKVLKGNMKVILRSPKYLELFLLAKQRVPTKLESLMGSVDLFSEDNIPSLVNILKVAANSVKKEHKLPNVALDLLRLALKESRFELFWKKVLEEGLLKNPSWTSSYMCFRLLGASLPLLSEEQLQLVMRGDLIRHFGENMVISKPQNLFKIIPEISTYVGTFLEGCQDDPKRQLTMMVAFTTITNQGLPVMPTFWRVTRFLNAEALQSYVAWLRDMFLQPDLNSLVDFSTANQKRAQDASLNVPERAVFRLRKWIIHRLVSLVDHLHLEKDEAVVEQIARFCLFHAFFKTKKATPQIPETKQHFSFPLDDRNRGVFVSAFFSLLQTLSVKFRQTPDLAENGKPWTYRLVQLADMLLNHNRNVTSVTSLTTQQRQAWDQMMSTLKELEARSSETRAIAFQHLLLLVGLHIFKSPAESCDVLGDIQTCIKKSMEQNPRRSRSRAKASQEPVWVEVMVEILLSLLAQPSNLMRQVVRSVFGHICPHLTPRCLQLILAVLSPVTNEDEDDNVVVTDDADEKQLQHGEDEDSDNEDNKNSESDMDSEDGEESEEEDRDKDVDPGFRQQLMEVLKAGNALGGVDNEEEEELGDEAMMALDQNLASLFKEQKMRIQARNEEKNKLQKEKKLRRDFQIRALDLIEVLVTKQPEHPLILELLEPLLNVIQHSMRSKGSTKQEQDLLHKTARIFMHHLCRARRYCHEVGPCAEALHAQVERLVQQAGSQADASVALYYFNASLYLLRVLKGNTNKRHQDGHKLHGADTEDSEDQAANCLDLDFVTRVYSASLESLLTKRNSSLTVPMFLSLFSRYPVICKNLLPVLAQHVAGPSRPRHQAQACLMLQKTLSARELRVCFEDPEWEQLITQLLGKATQTLQTLGEAQSKGEHQKELSILELLNTLLRTVNHEKLSVDLTAPLGVLQSKQQKLQQSLQQGNHSSGSNRLYDLYWQAMRMLGVQRPKSEKKNAKDIPSDTQSPVSTKRKKKGFLPETKKRKKLKSEGTTPEKNAASQQDAVTEGAMPAATGKDQPPSTGKKKRKRVKASTPSQVNGITGAKSPAPSNPTLSPSTPAKTPKLQKKKEKLSQVNGATPVSPIEPESKKHHQEALSTKEVIRKSPHPQSALPKKRARLSLVSRSPSLLQSGVKKRRVASRRVQTP
B5: Noc3 (protein, UniProt Q8VI84 1-807)
chain: MKARRNKKQVPSFRKLIKTSKVKLENKLKNKQFKQQSTIKKYRKEQRKLRQAVKDAVSKKPIPLEDPKSKRPVKRMEREEDEEEEALPLDMMDEDDLQLMKDLGQKASFLTRDLSSSEPVHIKKRKHESVIEKYEKVPRTLQTAPEKELIHLLPIKDKSGIIPQAREKPVTDVQQEEEAEEELEDEEEVIEDPRKELTIEEHVIERKKKLQDKKIQIAALASAILSDPESHIKKLKELRSMLMEQDPDVAVTVRKLVIISLMELFKDITPSYKIRPLTEAEKSTKIRKETQKLREFEEGLVSQYKFYLENLEQIVKDWKQRKLKKSNVVSLKAYKGLAEVAVKSLCELLVALPHFNFHNNIIVLIVPLMNDGSKPVSEMCCEAVKKLFKQDKLGQASLGVIKVISGFVKGRNYEVRPEMLKTFLCLRIKEVEVKKDTEDINKPKRFMTFKEKRKTLSRMQRKWKKAEEKLERELREAEASESTEKKLKLHTETLNIVFVTYFRILKKAQKSPLLPAVLEGLAKFAHLINVEFFDDLLVVLHTLIESGELSYQESLHCVQTAFHILSGQGDVLNIDPMKFYTHLYKTLFTLHAGATNDGIEIVLHCLDVMLSKRRKQVSHQRALAFIKRLCTLALQVLPNSSIGLLATTRILMHTFPRTDLLLDNESQGSGVFLPELEEPEYCNAQNTALWELHTLRRHYHPIVRRFAAHLLAGAPSEGSEALKPELSRRSAVELFETYSMAAMTFNPPVESSHSKRKDKFLPGDSFLNEDLNQLIKRYCNEAAPETPLDFAKCLESSSRQYRVNGLS

target: Psip1/p52 (endogenous) (mouse (endogenous in NIH 3T3 and MEFs)) (UniProt Q99JF8); test: affinity purification with mass spectrometry; A300-847 IP from NIH 3T3 nuclear extract, washes with 200 mM KCl; gel bands analysed by MS/MS (Mascot)

| binding | Binder |
| --- | --- |
| binds | B1 |
| binds | B2 |
| binds | B3 |
| binds | B4 |
| binds | B5 |
